The source of these data is PMC6179088.

Amino acid sequences for entries named in this document (tags omitted). Residues count along the entry.
UniProt Q13308, 31-1070: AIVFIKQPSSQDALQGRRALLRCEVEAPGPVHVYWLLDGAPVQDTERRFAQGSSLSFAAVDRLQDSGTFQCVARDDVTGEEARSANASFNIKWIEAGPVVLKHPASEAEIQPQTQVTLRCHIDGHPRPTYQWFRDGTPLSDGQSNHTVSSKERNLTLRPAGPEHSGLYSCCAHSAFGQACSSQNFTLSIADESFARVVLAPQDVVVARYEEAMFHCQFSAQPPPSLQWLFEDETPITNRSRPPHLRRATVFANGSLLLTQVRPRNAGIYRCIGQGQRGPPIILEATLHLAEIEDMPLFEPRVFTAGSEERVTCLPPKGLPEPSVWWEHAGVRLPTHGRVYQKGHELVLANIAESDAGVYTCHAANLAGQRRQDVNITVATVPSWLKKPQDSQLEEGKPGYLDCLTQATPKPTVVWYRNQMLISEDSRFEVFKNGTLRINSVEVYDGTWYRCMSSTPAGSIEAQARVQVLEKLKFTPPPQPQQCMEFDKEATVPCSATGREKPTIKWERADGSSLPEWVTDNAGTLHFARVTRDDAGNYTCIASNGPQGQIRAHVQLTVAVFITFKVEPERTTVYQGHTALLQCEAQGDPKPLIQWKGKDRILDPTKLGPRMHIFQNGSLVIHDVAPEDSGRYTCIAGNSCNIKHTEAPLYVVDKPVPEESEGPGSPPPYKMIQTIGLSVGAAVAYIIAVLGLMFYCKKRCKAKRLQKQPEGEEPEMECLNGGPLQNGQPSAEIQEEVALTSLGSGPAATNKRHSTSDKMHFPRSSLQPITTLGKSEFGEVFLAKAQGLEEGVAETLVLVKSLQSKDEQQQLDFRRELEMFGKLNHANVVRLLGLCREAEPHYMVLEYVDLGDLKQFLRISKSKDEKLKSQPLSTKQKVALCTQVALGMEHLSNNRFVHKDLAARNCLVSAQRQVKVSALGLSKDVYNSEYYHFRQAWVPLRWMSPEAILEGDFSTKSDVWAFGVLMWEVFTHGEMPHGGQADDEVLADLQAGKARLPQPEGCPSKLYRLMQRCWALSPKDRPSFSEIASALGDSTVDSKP

This data set has as its target PTK7 (membrane protein on HeLa cells) (UniProt Q13308). Nature of the data set: confocal fluorescence imaging of HeLa cells (TAMRA recovery on target binding). To be noted: aptamer conjugated to ZrMOF nanoparticles, 25 ug/mL, 2 h, random library pool conjugate gave negligible fluorescence; 5' phosphate (printed H2PO3), coordinated to ZrMOF nanoparticle; HeLa cells in complete DMEM (10% FBS), 37 °C, 5% CO2, 2 h, 25 ug/mL nanoparticles, then washed twice; protein on the cell surface; label: 3' TAMRA; folded or branched DNA.

For at least one entry, the source does not settle the construct or the ends of the probe. Results from cells or extracts need not show a direct contact. At least one verdict was read from the data and is not stated in words by the source.

Regarding “TTTTTTTTTTATCTAACTGCTGCGCCGCCGGGAAAATACTGTACGGTTAGA”, the binding result is reported as “binds”.
